Assay results taken from patent publication US20200062856A1 (XDCEXPLORER SHANGHAI, published 2020).
Substitutions are numbered along the chain they refer to. Results are given in words; binding and its absence hold for the method and conditions named. Some entries that bind do so weakly or less than the wild type.

T1: cynomolgus TPBG protein, full-length, on the cell surface (cynomolgus) (UniProt Q4R8Y9)
T1 sequence (looked up): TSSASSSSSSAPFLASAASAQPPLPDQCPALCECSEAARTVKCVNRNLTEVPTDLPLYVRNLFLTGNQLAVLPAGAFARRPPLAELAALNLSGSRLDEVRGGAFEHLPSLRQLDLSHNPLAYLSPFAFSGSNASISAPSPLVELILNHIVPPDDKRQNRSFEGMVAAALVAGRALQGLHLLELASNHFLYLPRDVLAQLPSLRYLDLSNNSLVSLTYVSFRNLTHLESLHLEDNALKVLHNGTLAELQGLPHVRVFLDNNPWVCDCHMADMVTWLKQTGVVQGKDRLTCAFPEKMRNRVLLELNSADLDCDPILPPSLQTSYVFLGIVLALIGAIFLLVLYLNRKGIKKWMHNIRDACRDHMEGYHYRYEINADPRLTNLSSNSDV

B1: Chimeric antibody 12B12 (antibody, V domains shown)
VH: DVQLVESGGGLVQPGGSRKLSCAASGFTFSNFGMHWVRQAPEKGLEWVAYISSGSTSFYYADTVKGRFTISRDNPKNTLFLQMTSLRSEDTAMYYCSRTNSLLRGFFDAWGAGTTVTVSS
VL: DIVLTQSPASLAVSLGQRATISCRASQSVSSSSYTYLHWYQQKPGQPPKLLIKSASNLESGVPARFSGTGSGTDFTLNIHPVEEEDTATYYCQHSWEIPLTFGAGTKLELK
notes: Mouse variable domains on human IgG1 heavy and human kappa light constant regions; also called c12B12; TPBG chimeric antibody 12B12
B2: Humanized antibody 12B12-12 (antibody, V domains shown)
VH: EVQLVESGGGLVQPGGSLRLSCAASGFTFSNFGMHWVRQAPGKGLEWVSYISSGSTSFYYADTVKGRFTISRDNAKNSLYLQMNSLRDEDTAVYYCARTNSLLRGFFDAWGQGTTVTVSS
VL: DIVLTQTPLSLSVTPGQPASISCRASQSVSSSSYTYLHWYLQKPGQPPQLLIKSASNLESGVPDRFSGSGSGTDFTLKISRVEAEDVGVYYCQHSWEIPLTFGQGTKLEIK
notes: also called h12B12-12
B3: Humanized antibody 12B12-15 (antibody, V domains shown)
VH: B2 VH with L11V, G16R, S49A, A75S, S78T, D88A
VL: B2 VL
notes: also called h12B12-15
B4: Chimeric antibody 28D4 (antibody, V domains shown)
VH: DVQLVESGGGLVRPGGSLKLSCAASGFTFSNYVMSWARQSPEKRLEWVAEISTGGSHTYYSDTVTGRFTISRDNAKKALYLEMSSLRSEDTAIYYCIMFYYGSSYSMDYWGQGTSVTVSS
VL: DIQMTQSTSSLSASLGDRITISCRASQDIRNYLNWYQQKPDGTVKLLIYHTSRLHSGVPSRFSGSGSGTDYSLTISNLEQEDIATYFCQQGDTLPLTFGAGTRLELK
notes: Mouse variable domains on human IgG1 heavy and human kappa light constant regions; also called c28D4; TPBG chimeric antibody 28D4
B5: Humanized antibody 28D4-3 (antibody, V domains shown)
VH: EVQLVESGGGLVKPGGSLRLSCAASGFTFSNYVMSWIRQAPGKGLEWVAEISTGGSHTYYSDTVTGRFTISRDNAKKSLYLQMNSLRAEDTAVYYCIMFYYGSSYSMDYWGQGTTVTVSS
VL: DIQMTQSPSSLSASVGDRVTITCRASQDIRNYLNWYQQKPGKAPKLLIYHTSRLHSGVPSRFSGSGSGTDFTFTISSLQPEDIATYYCQQGDTLPLTFGQGTRLEIK
notes: also called h28D4-3
B6: Humanized antibody 28D4-4 (antibody, V domains shown)
VH: B5 VH with I37A, G44R
VL: B5 VL
notes: also called h28D4-4
B7: Humanized antibody 28D4-7 (antibody, V domains shown)
VH: B5 VH
VL: B5 VL with F71Y
notes: also called h28D4-7
B8: mouse anti-TPBG monoclonal antibody 12B12C7C3 (antibody, V domains shown)
VH: B1 VH
VL: B1 VL
notes: Mouse antibody purified from hybridoma supernatant; also called 12B12C7C3 (12B12 for short)
B9: mouse anti-TPBG monoclonal antibody 28D4E6A9 (antibody, V domains shown)
VH: B4 VH
VL: B4 VL
notes: Mouse antibody purified from hybridoma supernatant; also called 28D4E6A9 (28D4 for short)

Target: T1, cynomolgus TPBG protein, full-length, on the cell surface (cynomolgus)
Test: FACS on CHOK1-cTPBG cells (cynomolgus TPBG), fluorescent secondary antibody, mean fluorescence intensity

binding, binds:
B1, B2, B3, B4, B5, B6, B7

Target: T1, cynomolgus TPBG protein, full-length, on the cell surface (cynomolgus)
Test: FACS on CHOk1-cTPBG cells

binding, binds:
B8, B9

Target: T1, cynomolgus TPBG protein, full-length, on the cell surface (cynomolgus)
Test: FACS on CHOK1-cTPBG cells

binding, binds:
B2, B3, B5, B6, B7
